From paper doi:10.1101/2024.01.10.574988
Results are given in words; binding and its absence hold for the method and conditions named. Binding calls can cover weak binding; strength is not graded here.

Protein sequences, listed by entry. Tags and fused reporters are not part of them. Lines headed by an entry give the natural chain unless they say otherwise; changes in a name come on top. Residues count along the entry.
UniProt Q07954, residues 4445-4544: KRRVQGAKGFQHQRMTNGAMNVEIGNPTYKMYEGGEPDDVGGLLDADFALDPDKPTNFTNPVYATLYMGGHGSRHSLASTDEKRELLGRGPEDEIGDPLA
UniProt Q15036: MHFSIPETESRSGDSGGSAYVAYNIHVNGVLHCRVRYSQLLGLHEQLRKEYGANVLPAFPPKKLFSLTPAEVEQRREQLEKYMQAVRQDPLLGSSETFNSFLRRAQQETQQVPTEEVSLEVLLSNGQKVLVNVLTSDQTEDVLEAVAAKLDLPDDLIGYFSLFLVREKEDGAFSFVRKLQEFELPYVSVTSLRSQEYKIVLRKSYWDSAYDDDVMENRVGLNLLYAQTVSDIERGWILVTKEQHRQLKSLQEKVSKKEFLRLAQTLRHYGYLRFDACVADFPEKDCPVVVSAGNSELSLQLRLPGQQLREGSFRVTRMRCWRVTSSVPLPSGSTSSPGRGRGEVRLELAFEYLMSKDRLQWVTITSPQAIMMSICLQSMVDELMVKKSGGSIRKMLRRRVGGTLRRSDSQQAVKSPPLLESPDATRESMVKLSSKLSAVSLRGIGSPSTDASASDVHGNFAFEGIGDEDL

Biological target: GST-fusion of the cytoplasmic tail of LRP1 (human) (UniProt Q07954)
Experiment: pull-down

binding: binds
Substance: SNX17ΔC (residue 1-390) with an intramolecular decaHis tag (from UniProt Q15036) (domain or fragment)
